Data as given in patent publication US9345804B2, “S-nitrosothiol-generating skin dressings” (Insense Limited, priority 2007, dated 2016).

Experiments:
[1] = Rate of nitrosylation of 1-thioglycerol by nitrite, direct absorbance measurement at 338 nm; assay type: physicochemical; settings: pH 4.0
[2] = Rate of nitrosylation of 1-thioglycerol by nitrite, Griess method (absorbance 496 nm); assay type: physicochemical; settings: pH 4.0 and pH 4.5, nitrite 5 mM, 1-thioglycerol 5 mM, citrate buffer

[Zn+2] [zinc cations]
rate of nitrosylation (absorbance 338 nm) ([1]; 100 μM zinc cations, nitrite 5 mM, 1-thioglycerol 5 mM, citrate buffer): increased
increase in nitrosylation rate (absorbance 338 nm) ([1]; 250 μM zinc cations, compared with 100 μM): more marked

[Fe+2] [ferrous cations]
nitrosylation rate (Griess method, absorbance 496 nm) ([2]; 100 μM ferrous cations): increase
nitrosylation rate (Griess method, absorbance 496 nm) ([2]; 250 μM ferrous cations): increase
